# Measurements reported in PubChem BioAssay AID1347076 (National Center for Advancing Translational Sciences (NCATS), 2019).
# In all, about 400,000 compounds went through this assay and about 13,000 (3.2%) were called active. Inconclusive means that the source gave no clear call. Such entries were picked first, then a sample of the others. Calls come from the whole dose curve; as a rule, active = well fitted cell-killing curve with a large enough effect; inconclusive = small, poorly fitted or top-dose-only effect, or effect the other way; inactive = flat fitted curve, though single readings scatter. A potency beside an inconclusive call is a rough fit, not a confirmed value.
# Test: qHTS assay for MDR1-selective chemotherapeutics: Primary screen using the drug-selected MDR subline cells KB-V1; note: nearly all actives have a fitted effect of over 60% in size
# Conditions: KB-V1 MDR cells viability, CellTiter-Glo, 72 h; series mostly up to 46.1 µM
# Procedure, shortened: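 Cells of the MDR subline KB-V1 are plated, dosed with compound at multiple concentrations, and incubated 72 h at 37 degrees C; CellTiter-Glo is then added and luminescence read after 10 min.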
# Potency is the fitted concentration of half-maximal effect.
row,Compound,Potency
1,COc1ccc(/C=N/NC(=O)c2ccc(CSc3nc(C)cc(C)n3)cc2)cc1O,"inconclusive: 23.1 µM [cytotoxic, partial curve, poor fit]"
2,N=c1c2c(n(Cc3ccc([N+](=O)[O-])cc3)c3c1CCC3)CCCC2,inactive
3,COc1ccc(N2CC(C(=O)Nc3cccc(OC(C)C)c3)CC2=O)cc1 (stereo unspecified),"inconclusive: 20.6 µM [cytotoxic, single point]"
4,c1ccc(CCC2CCCCN2Cc2nc(C3CC3)no2)cc1 (stereo unspecified),"inconclusive: 29.1 µM [cytotoxic, single point]"
5,COc1ccc(C(=O)Nc2ccccc2C(=O)N/N=C/c2ccccc2OC)cc1,"inconclusive: 23.1 µM [cytotoxic, partial curve]"
6,N#Cc1ccccc1/C=N/Nc1nc(-c2ccccc2)c2cc(Br)ccc2n1,inactive
7,C/C(=N/Nc1ccnc2cc(Cl)ccc12)c1ccc(O)cc1,inactive
8,COc1ccc(-c2cc(OC(=O)c3ccc(Cl)cc3)c3c(C)oc(C)c3c(=O)c2)cc1,inactive
9,Nc1ccc(-c2nc3ncccc3o2)cc1,"inconclusive: 3.66 µM [rising, partial curve, poor fit]"
10,Cc1ccccc1-c1nc(CN2CCC(C(=O)NC3CC3)CC2)c(C)o1,inactive
11,CCC(CCC(=O)Nc1cccc([N+](=O)[O-])c1)C(=O)O (stereo unspecified),"inconclusive: 29.1 µM [rising, single point]"
12,CN1Cc2c(N3CCOCC3)nc3sc(C#N)c(N)c3c2CC1(C)C,inactive
13,CC1CCCCC1NC(=O)C1CCC(CNS(=O)(=O)c2ccccc2)CC1 (stereo unspecified),inactive
14,CCC(=O)c1ccccc1OCCSc1nc(C)cc(=O)[nH]1,active: 14.6 µM
15,CC1CCCN(C(=S)NCc2ccccc2)C1 (stereo unspecified),inactive
16,Cc1ccc(C)c(OCC(=O)Nc2ccc(N3CCOCC3)cc2)c1,"inconclusive: 20.6 µM [cytotoxic, single point]"
17,CC1CC(OC(=O)c2ccccc2C(=O)c2ccc(Cl)cc2)C(=O)O1 (stereo unspecified),"inconclusive: 0.0058 µM [rising, full curve, poor fit]"
18,COc1ccc(CNC(=O)Nc2nc(C(N)Cc3ccc(F)cc3)cs2)cc1 (stereo unspecified),inactive
19,CCc1c(C)sc(NC(=O)c2ccccc2[N+](=O)[O-])c1C(N)=O,inactive
20,CN(C)c1ccc(Nc2nc(-c3cccnc3)cs2)cc1,"inconclusive: 14.6 µM [cytotoxic, partial curve]"
21,COc1ccccc1CNS(=O)(=O)c1ccc(Br)s1,inactive
22,Cc1ccc2nc(-c3cccc(Br)c3)c(Cc3ccccc3C(F)(F)F)n2c1,inactive
23,COC(=O)[C@]1(C)N[C@H](CN(C)S(=O)(=O)c2ccc(-c3ccccc3)cc2)[C@@H]2C(=O)N(Cc3ccccc3)C(=O)[C@@H]21,inactive

# A different layout for some results above:
row | Compound | Potency
2 | N=c1c2c(n(Cc3ccc([N+](=O)[O-])cc3)c3c1CCC3)CCCC2 | inactive
3 | COc1ccc(N2CC(C(=O)Nc3cccc(OC(C)C)c3)CC2=O)cc1 (stereo unspecified) | inconclusive: 20.6 µM [cytotoxic, single point]
4 | c1ccc(CCC2CCCCN2Cc2nc(C3CC3)no2)cc1 (stereo unspecified) | inconclusive: 29.1 µM [cytotoxic, single point]
5 | COc1ccc(C(=O)Nc2ccccc2C(=O)N/N=C/c2ccccc2OC)cc1 | inconclusive: 23.1 µM [cytotoxic, partial curve]
6 | N#Cc1ccccc1/C=N/Nc1nc(-c2ccccc2)c2cc(Br)ccc2n1 | inactive
7 | C/C(=N/Nc1ccnc2cc(Cl)ccc12)c1ccc(O)cc1 | inactive
8 | COc1ccc(-c2cc(OC(=O)c3ccc(Cl)cc3)c3c(C)oc(C)c3c(=O)c2)cc1 | inactive
9 | Nc1ccc(-c2nc3ncccc3o2)cc1 | inconclusive: 3.66 µM [rising, partial curve, poor fit]
10 | Cc1ccccc1-c1nc(CN2CCC(C(=O)NC3CC3)CC2)c(C)o1 | inactive
11 | CCC(CCC(=O)Nc1cccc([N+](=O)[O-])c1)C(=O)O (stereo unspecified) | inconclusive: 29.1 µM [rising, single point]
12 | CN1Cc2c(N3CCOCC3)nc3sc(C#N)c(N)c3c2CC1(C)C | inactive
13 | CC1CCCCC1NC(=O)C1CCC(CNS(=O)(=O)c2ccccc2)CC1 (stereo unspecified) | inactive
14 | CCC(=O)c1ccccc1OCCSc1nc(C)cc(=O)[nH]1 | active: 14.6 µM
15 | CC1CCCN(C(=S)NCc2ccccc2)C1 (stereo unspecified) | inactive

# (list continues)

row,Compound,Potency
1,COCCCNC(=O)c1ccccc1N(Cc1ccccc1)S(=O)(=O)c1ccc(OC)cc1,"inconclusive: 29.1 µM [cytotoxic, single point]"
2,COCCCNS(=O)(=O)c1ccc(OC)c(Cl)c1Cl,"inconclusive: 18.4 µM [cytotoxic, single point]"
3,Cc1ccc(S(=O)(=O)N2CCCc3ccccc32)cc1,"inconclusive: 29.1 µM [cytotoxic, single point]"
4,COC(=O)c1[nH]c2ccc(Br)cc2c1NC(=O)C(C)N1CCN(C2CCCCC2)CC1 (stereo unspecified),"inconclusive: 23.1 µM [cytotoxic, single point]"
5,COc1ccc(-c2nc3ccccc3s2)cc1NC(=O)COc1ccc(C)cc1,inactive
6,CC(SCc1ccccc1)C(=O)Nc1ccc(F)cc1 (stereo unspecified),"inconclusive: 18.4 µM [cytotoxic, single point]"
7,COc1ccc(C2CC(C(F)(F)F)n3nc(C(=O)Nc4ccc5c(c4)OCO5)cc3N2)cc1 (stereo unspecified),inactive
8,COC(=O)COc1ccc(S(=O)(=O)Nc2ccccc2C(=O)OC)cc1,"inconclusive: 20.6 µM [rising, single point]"
9,CCc1ccc(C(=O)NNC(=O)c2ccc(=O)n(C)n2)cc1,inactive
10,COc1ccc(C(=O)NCC(=O)OCC(=O)NC2CCCCCC2)cc1OC,"inconclusive: 0.13 µM [rising, full curve]"
11,CCn1cc(Br)c(C(=O)Nc2ccc(Cl)cc2Cl)n1,"inconclusive: 29.1 µM [cytotoxic, single point]"
12,CC(OC(=O)c1ccc(Cl)cc1)C(=O)NCc1ccc2c(c1)OCO2 (stereo unspecified),"inconclusive: 18.4 µM [rising, single point]"
13,CC(C)Cn1cc(C(=O)NCCCN2CCCC2=O)c2c3ccccc3n(C)c2c1=O,active: 5.8 µM
14,CCCCn1c(N)c(N(CC(C)C)C(=O)c2oc3ccc(OC)cc3c2C)c(=O)[nH]c1=O,"inconclusive: 23.1 µM [rising, single point]"
15,CCOC(=O)c1sc2nc(CSc3ccccc3)nc(N3CCC(C(N)=O)CC3)c2c1C,"inconclusive: 16.4 µM [cytotoxic, partial curve]"
16,O=C(NNc1c(Cl)cc(Cl)cc1Cl)c1cccc([N+](=O)[O-])c1,"inconclusive: 18.4 µM [cytotoxic, single point]"
17,CCC(=O)N1CCCC1(C)C(=O)NCc1ccc(SC)cc1 (stereo unspecified),inactive
18,S=c1nc(NCCc2ccccc2Cl)c2ccccc2[nH]1,"inconclusive: 18.4 µM [cytotoxic, partial curve]"
19,O=C(c1ccc(Cn2cc(Cl)cn2)cc1)N1CCN(c2ccccc2)CC1,"inconclusive: 29.1 µM [cytotoxic, single point]"
20,Cc1c(Cl)c([N+](=O)[O-])nn1CCCC(=O)Nc1ccc(Cl)cc1Cl,"inconclusive: 16.4 µM [cytotoxic, partial curve, poor fit]"
21,NC(=S)N=Nc1c(O)n(CCCl)c2ccccc12,"inconclusive: 14.6 µM [cytotoxic, partial curve, poor fit]"
22,COCCNC(=O)c1ccc(N2CC3CC(C2)c2cccc(=O)n2C3)c(NC(=O)c2ccccc2Br)c1 (stereo unspecified),"inconclusive: 29.1 µM [rising, single point]"
23,CN(C)S(=O)(=O)c1cccc(NC(=O)c2cc(-c3cccs3)nn2-c2cccc(Cl)c2)c1,active: 2.31 µM
